{"source": "patent US5821329A", "about": "“Cyclic peptide inhibitors of β1 and β2 integrin-mediated adhesion” (Tanabe Seiyaku Co., Ltd., priority 1996, dated 1998)", "system": "JY cell adhesion to TNF stimulated endothelial cells (β2 integrins)", "assay": "JY-Endothelial Cell adhesion assay", "assay_type": "cell-based, human", "conditions": "JY B cells + PMA on rTNF-stimulated HUVEC; no unit printed in the table (text gives IC50 and test concentrations in μM); read-out: IC50 for adhesion inhibition JY-EC", "method": "The JY-Endothelial Cell Assay\nThe following assay established the activity of the present compounds in inhibiting cell adhesion through β2 integrins in a representative in vitro system.\nThe human B cell line, JY, was cultured in RPMI media containing 10% fetal calf serum at 37° C., in a humidified CO2 atmosphere. Endothelial cells were grown to confluency in 96-well micro-titer assay plates, as in the Jurkat-EC assay. Before the assay, the endothelial cells were stimulated with 50 U/ml rTNF for 18-24 hours at 37° C. JY cells were loaded with the fluorescent dye indicator BCECF-AM as follows: JY cells were washed twice with HBSS and cells were resuspended in HBSS at 5×10^6 cells/ml; BCECF-AM (Molecular Probes), stock concentration=1 mg/ml in DMSO, was added to the JY cells to a final concentration of 2 μg/ml; cells were incubated in the dark at 37° C. for 30-45 minutes; washed twice with HBSS and used in the assay. […]\nThe assay plates were then typically incubated for 30 min at 37° C. and washed four times with PBS containing Mg^2+ and Ca^2+ (room temp). 100 μl of PBS containing Mg^2+ and Ca^2+ were added to each well and the fluorescence from the adherent BCECF-labelled cells was analyzed using a fluorescence plate reader. […]", "note": "At least one peptide structure holds a part that was inferred or is arguable (an end, a ring closure or a residue). Starred links: 1 amine or outer side, 2 acyl side, 3 side chain; linkers in the order of their positions; H or OH if unused. Positions of bridges follow the written chain, without caps; N, C: chain ends. Non-standard residues stand in square brackets, D forms with d. Residues, ends and D or L forms follow the SMILES beside them. *: point of attachment. Acetyl(9-fluorenyl) = O=C(CC1c2ccccc2-c2ccccc21)*; βAsp = O=C(O)[C@H](CC(=O)[*:2])N[*:1]; Thz = O=C(O)[C@@H]1CSCN1; PhAc = O=C(Cc1ccccc1)*"}
{"smiles": "C[C@H](NC(=O)[C@@H]1CSSC[C@H](NC(=O)[C@H](CCCCNC(=O)Cc2ccccc2)NC(=O)CC2c3ccccc3-c3ccccc32)C(=O)N[C@H](C(=O)O)CC(=O)N2CSC[C@H]2C(=O)N1)C(=O)N[C@@H](CO)C(=O)O", "note": "[Compound 69, (9-FAc)-Lys(PhAc)-Cys*-(β-Asp)-(ThioP)-Cys*-Ala-Ser] ({Acetyl(9-fluorenyl)}-K(PhAc)C[βAsp][Thz]CAS-OH; disulfide 2-5)", "values": [{"measurement": "IC50", "value": 94, "unit": "µM"}]}
